The whole screen tested about 320,000 compounds, of which about 2,100 (0.66%) were called active. Inconclusive means that the source gave no clear call. Such entries were picked first, then a sample of the others. Calls follow the shape of the dose curve; as a rule, active = well fitted inhibition curve with a large enough effect in the signal ratio, with a control signal flat (not every such curve was filed as active); inconclusive = small, poorly fitted or top-dose-only effect, or effect the other way, or a change in a side signal; inactive = flat fitted curve, though single readings scatter; the % refers to the signal ratio. Potencies beside an inconclusive call are fits to weak or partial responses and may not hold up.
Assay: qHTS Assay for Lipid Storage Modulators in Drosophila S3 Cells
Details: BODIPY lipid droplet fluorescence, 18-24 h, cells fed with added oleic acid; lipid storage change, negative = inhibition: at 46.1 µM (top of the series) unless noted
How it was run: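 Drosophila S3 cells got compounds at several concentrations plus oleic acid (400 uM solution). Laser-scanning cytometry with 488 nm excitation read lipid droplets at 500-530 nm and cells at 575-640 nm. Percent activity was relative to 20 uM Triacsin C.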
% is scaled to controls: 0 for no effect and ±100 for the full control effect; potency is read from the fitted curve at half-maximal effect.

Compound	lipid storage change, negative = inhibition	Potency	outcome
O=C(NNc1ccnc2cc(Cl)ccc12)C1CCCCC1	inconclusive: 15.9%		
COc1cccc(C2=NOC(C(=O)Nc3cccnc3)C2)c1 (configuration not stated)	inconclusive: -55.7%		
COCCCNC(=O)CCn1c(=O)c2ccccc2n(CC(=O)Nc2c(C)cccc2C)c1=O		inconclusive: 3260 nM [activator, single point]	
O=C(NCCCN1CCOCC1)c1sc2cc(F)ccc2c1Cl	inconclusive: 78.9%		
CO/N=C\c1cc(C(=O)c2ccc(Cl)cc2Cl)cn1C	inconclusive: 24.3%		
COc1cc(-n2c(=O)c3ccccc3n(CC(=O)OCc3ccccc3)c2=O)cc(OC)c1OC	inconclusive: 5.94%		
CN1CCN(c2ccc(NC(=O)Cc3ccccc3)cc2)CC1	inconclusive: -60.4%		
CC1=C(C(=O)OC2CCCCC2)C(c2cccs2)n2c(nc3ccccc32)N1 (configuration not stated)	inconclusive: 23.5%		
O=C(Cn1nc(C(=O)O)c2ccccc2c1=O)Nc1ccc(F)cc1		inconclusive: 29100 nM [falling, single point]	
C=C(C)C1CC=C(C)/C(=N/NC(=O)COc2cccc(C)c2)C1 (configuration not stated)	inconclusive: -19.1%		
CCNC(=O)C1CC(=O)N(Cc2ccc(F)cc2)C(=Nc2ccc(OC)cc2)S1 (configuration not stated)		inconclusive: 920 nM [activator, full curve]	
N#Cc1cnn(-c2ccccc2)c1N		inconclusive: 25900 nM [activator, single point]	
CCCNC(=O)c1ccc(N2CCC3(CC2)CC(c2ccccc2)=NO3)c(N)c1	inconclusive: -6.05%		
Cc1cc(=O)oc2cc(Oc3ccc([N+](=O)[O-])cc3[N+](=O)[O-])ccc12		active: 20600 nM	
Cc1cc(O)c(C2=Nc3ccccc3SC(c3ccc(Cl)cc3)C2)c(=O)o1 (configuration not stated)	inconclusive: -20.6%		
CCOc1ccc(-c2ccc(C=O)o2)c([N+](=O)[O-])c1	inconclusive: 10.5%		
CCc1cccc(C)c1N=Cc1c(O)c2ccccc2oc1=O		inconclusive: 103 nM [falling, full curve, poor fit]	
C=C(C)COc1ccc2c(C)c(CC(=O)OC)c(=O)oc2c1C		inconclusive: 580 nM [cytotoxic, single point]	
COCc1[nH]nc2c1C(c1ccnc3ccccc13)C(C#N)=C(N)O2 (configuration not stated)		inconclusive: 651 nM [activator, single point]	
CCOc1ccc2ccccc2c1C(=O)N[C@@H]1C(=O)N2[C@@H]1SC(C)(C)[C@@H]2C(=O)O	inconclusive: -3.73%		
COc1ccc(N2CCN(C(=S)NCc3ccc(C)cc3)CC2)cc1	inconclusive: -24.4%		
CC(=O)N1c2ccccc2C2(O)N=C(C)SC12 (configuration not stated)	inconclusive: 16.5%		
O=C(NCc1cccc(Cl)c1)C1CCC(=O)N(CCN2CCOCC2)C1 (configuration not stated)	inactive: 33%		
COc1ccc(/C=C/C(=O)NC(=S)NNC(=O)c2cccnc2)cc1	inconclusive: -80.2%		
CCCC[C@@H]1C[C@H]1[C@@H](NC(=O)c1ccccc1)c1ccccc1C(F)(F)F	inconclusive: 3.4%		
COc1cccc(C2C(C(=O)c3sc(C)nc3C)=C(O)C(=O)N2CCN2CCOCC2)c1 (configuration not stated)	inconclusive: 4.91%		

3 entries already listed, sorted by SMILES length, ascending.
Compound	lipid storage change, negative = inhibition	Potency	outcome
O=C(NNc1ccnc2cc(Cl)ccc12)C1CCCCC1	inconclusive: 15.9%		
COc1ccc(N2CCN(C(=S)NCc3ccc(C)cc3)CC2)cc1	inconclusive: -24.4%		
Cc1cc(O)c(C2=Nc3ccccc3SC(c3ccc(Cl)cc3)C2)c(=O)o1 (configuration not stated)	inconclusive: -20.6%		

(list continues)

Compound	lipid storage change, negative = inhibition	Potency	outcome
CCc1ccc(C(=O)Cn2cnc3cc([N+](=O)[O-])ccc3c2=O)cc1	inconclusive: 21.3%		
COc1ccc(-c2csc(N3CCN(C(=O)c4ccco4)CC3)n2)cc1	inconclusive: 25.4% [at 9.22 µM]		
CCC1(c2ccc(F)cc2)NC(=O)N(CC(=O)Nc2ccc(C)c(S(=O)(=O)N3CCOCC3)c2)C1=O (configuration not stated)	inconclusive: 89.6%		
COCCn1cc(C(=O)NCc2ccco2)c2c3ccccc3n(C)c2c1=O	inconclusive: 3.48%		
Nc1nc(NCc2ccco2)nc(N2CCCCCC2)c1[N+](=O)[O-]	inconclusive: 33.1%		
O=C(Cc1cccs1)Nc1ccccn1	inconclusive: 21.3%		
CC1CCCC(C)N1C(=O)COc1ccc(C(=O)N/N=C/c2ccc(C(=O)O)cc2)cc1 (configuration not stated)	inconclusive: -34.4%		
CCc1nc2c(sc3nc4c(cc32)COC(C)(C)C4)c(=O)n1Cc1ccco1		inconclusive: 18400 nM [falling, single point]	
CC[n+]1c(/C=C2\C=C(C)CC(C)(C)C2)sc2ccccc21	inconclusive: 20.4%		
O=C(/C=C/c1ccc(F)cc1)NCc1cccs1	inactive: 20.7%		
CC(C)C(NC(=O)c1ccc(F)cc1)C(=O)N1CCC1 (configuration not stated)	inconclusive: 20.3%		
COc1cccc(OCc2cc(C(=O)N3CCN(C(C)=O)CC3)no2)c1			inactive [at 46.1 µM]
COc1ccc(NC(=O)CN(C)C(=O)c2n[nH]c3ccccc23)cc1	inconclusive		
CCOc1cc(N2CCOCC2)c(OCC)cc1NC(=O)[C@H](C)N1C(=O)C2CC=CCC2C1=O (some centres not stated)		inconclusive: 130 nM [falling, full curve, poor fit]	
COc1ccc(N(CC(=O)N/N=C(\C)c2ccccc2)S(=O)(=O)c2ccccc2)cc1	inconclusive: 13.1%		
COc1cccc(NC(=O)CN2C(=O)NC3(CCCC3)C2=O)c1	inconclusive: -21.9%		
Cc1ccc(S(=O)(=O)N2CCN(C(=O)CSc3nnc(C)c(=O)[nH]3)CC2)cc1	inconclusive: -6.09%		
NNc1nc2ccccc2nc1C(F)(F)F	inconclusive: 13.9%		
CC(=O)N/N=C(/C)c1ccc(NC(=O)c2csc(C)c2C)cc1	inconclusive: 41.1%		
O=C(CNS(=O)(=O)c1ccc(Br)cc1)NCc1ccncc1	inconclusive: 60.3%		
COc1cc(C(=O)OCC(=O)NC2CC2)ccc1OCCC(C)C	inconclusive: 12%		
O=C(CN1CCN(c2ccccc2)CC1)Nc1ccc2c(c1)CCC2	inconclusive: -52.7%		
CCOc1ccccc1C(C(=O)NC1CCCCC1)N(C(=O)c1csnn1)C1CC1 (configuration not stated)	inconclusive: 68.3%		
CCCCOc1ccc(/C=C2/Sc3ccccc3C2=O)cc1	inconclusive: -44.1%		
COc1ccc(OC)c(Nc2cc(C)nc3ccccc23)c1	inconclusive: 12.7%		
COC(=O)c1sccc1NC(=O)CC1C(=O)NCCN1C(=O)Nc1ccc(C(F)(F)F)cc1 (configuration not stated)		inconclusive: 4.6 nM [falling, full curve, poor fit]	

Molecules listed so far containing fluorine, in the order listed:
Compound	lipid storage change, negative = inhibition	Potency	outcome
O=C(NCCCN1CCOCC1)c1sc2cc(F)ccc2c1Cl	inconclusive: 78.9%		
O=C(Cn1nc(C(=O)O)c2ccccc2c1=O)Nc1ccc(F)cc1		inconclusive: 29100 nM [falling, single point]	
CCNC(=O)C1CC(=O)N(Cc2ccc(F)cc2)C(=Nc2ccc(OC)cc2)S1 (configuration not stated)		inconclusive: 920 nM [activator, full curve]	
CCCC[C@@H]1C[C@H]1[C@@H](NC(=O)c1ccccc1)c1ccccc1C(F)(F)F	inconclusive: 3.4%		
CCC1(c2ccc(F)cc2)NC(=O)N(CC(=O)Nc2ccc(C)c(S(=O)(=O)N3CCOCC3)c2)C1=O (configuration not stated)	inconclusive: 89.6%		
O=C(/C=C/c1ccc(F)cc1)NCc1cccs1	inactive: 20.7%		
CC(C)C(NC(=O)c1ccc(F)cc1)C(=O)N1CCC1 (configuration not stated)	inconclusive: 20.3%		
NNc1nc2ccccc2nc1C(F)(F)F	inconclusive: 13.9%		
COC(=O)c1sccc1NC(=O)CC1C(=O)NCCN1C(=O)Nc1ccc(C(F)(F)F)cc1 (configuration not stated)		inconclusive: 4.6 nM [falling, full curve, poor fit]	

Source: PubChem BioAssay AID2685 (National Center for Advancing Translational Sciences (NCATS), 2010)
